Measured values reported in the supplement of paper PMC11006884.
This is a selection; strong and weak results do not stand in their true shares.

Amino acid sequences for entries named in this document (tags omitted). A change or cut given only in a name is not applied to a line headed by its entry.
UniProt Q9P2J5: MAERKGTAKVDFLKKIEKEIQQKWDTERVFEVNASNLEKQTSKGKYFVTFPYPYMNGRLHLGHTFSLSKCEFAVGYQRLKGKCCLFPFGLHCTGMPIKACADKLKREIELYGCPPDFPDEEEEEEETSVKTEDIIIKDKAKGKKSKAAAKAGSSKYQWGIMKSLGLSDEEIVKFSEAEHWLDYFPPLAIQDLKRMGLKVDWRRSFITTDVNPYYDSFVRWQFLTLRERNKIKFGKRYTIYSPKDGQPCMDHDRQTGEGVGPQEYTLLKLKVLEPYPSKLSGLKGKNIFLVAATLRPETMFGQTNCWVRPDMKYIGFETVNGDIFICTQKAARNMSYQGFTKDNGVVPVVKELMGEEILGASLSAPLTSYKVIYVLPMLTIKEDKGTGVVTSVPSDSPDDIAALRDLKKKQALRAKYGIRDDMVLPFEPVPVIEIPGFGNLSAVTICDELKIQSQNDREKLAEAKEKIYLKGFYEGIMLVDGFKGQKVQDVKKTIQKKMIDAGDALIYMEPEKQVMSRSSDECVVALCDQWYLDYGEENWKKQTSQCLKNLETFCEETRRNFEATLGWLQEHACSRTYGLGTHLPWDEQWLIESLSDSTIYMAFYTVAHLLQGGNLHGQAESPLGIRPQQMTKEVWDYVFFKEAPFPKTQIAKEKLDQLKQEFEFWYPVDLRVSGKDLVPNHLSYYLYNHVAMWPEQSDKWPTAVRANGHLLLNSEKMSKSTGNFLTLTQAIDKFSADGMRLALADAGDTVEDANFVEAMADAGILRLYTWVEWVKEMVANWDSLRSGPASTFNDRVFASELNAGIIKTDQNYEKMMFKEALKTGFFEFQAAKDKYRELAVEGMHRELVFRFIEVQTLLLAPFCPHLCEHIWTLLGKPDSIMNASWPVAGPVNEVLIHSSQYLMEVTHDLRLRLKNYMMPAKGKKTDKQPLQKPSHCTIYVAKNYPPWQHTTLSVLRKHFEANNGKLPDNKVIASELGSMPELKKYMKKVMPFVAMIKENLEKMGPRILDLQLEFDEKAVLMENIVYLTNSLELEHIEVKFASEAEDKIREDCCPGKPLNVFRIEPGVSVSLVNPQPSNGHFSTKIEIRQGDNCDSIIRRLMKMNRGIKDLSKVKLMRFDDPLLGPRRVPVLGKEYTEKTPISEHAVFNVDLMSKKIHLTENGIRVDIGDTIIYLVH
UniProt Q9NZW5: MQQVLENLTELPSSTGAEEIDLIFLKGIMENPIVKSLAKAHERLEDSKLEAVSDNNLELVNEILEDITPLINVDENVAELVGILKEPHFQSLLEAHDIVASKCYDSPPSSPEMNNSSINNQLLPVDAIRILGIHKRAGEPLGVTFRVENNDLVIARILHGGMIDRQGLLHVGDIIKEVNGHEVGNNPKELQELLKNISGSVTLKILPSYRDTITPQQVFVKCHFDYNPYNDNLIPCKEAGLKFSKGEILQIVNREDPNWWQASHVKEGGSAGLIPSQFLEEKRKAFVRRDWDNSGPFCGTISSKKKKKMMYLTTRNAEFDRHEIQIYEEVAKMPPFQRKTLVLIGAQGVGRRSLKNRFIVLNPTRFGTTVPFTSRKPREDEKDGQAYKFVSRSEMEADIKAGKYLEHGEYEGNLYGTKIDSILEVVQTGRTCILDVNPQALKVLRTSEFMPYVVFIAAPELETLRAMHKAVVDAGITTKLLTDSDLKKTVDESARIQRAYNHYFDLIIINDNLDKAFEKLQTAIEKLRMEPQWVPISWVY
UniProt Q9NZ63: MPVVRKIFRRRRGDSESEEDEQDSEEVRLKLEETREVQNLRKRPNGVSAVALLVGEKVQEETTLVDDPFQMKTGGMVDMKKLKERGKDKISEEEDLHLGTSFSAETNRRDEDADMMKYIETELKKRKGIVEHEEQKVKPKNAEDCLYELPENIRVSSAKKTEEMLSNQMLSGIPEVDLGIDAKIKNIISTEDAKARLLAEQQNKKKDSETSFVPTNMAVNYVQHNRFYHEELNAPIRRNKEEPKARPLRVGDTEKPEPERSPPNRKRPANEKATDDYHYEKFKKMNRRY
UniProt Q9UGP4: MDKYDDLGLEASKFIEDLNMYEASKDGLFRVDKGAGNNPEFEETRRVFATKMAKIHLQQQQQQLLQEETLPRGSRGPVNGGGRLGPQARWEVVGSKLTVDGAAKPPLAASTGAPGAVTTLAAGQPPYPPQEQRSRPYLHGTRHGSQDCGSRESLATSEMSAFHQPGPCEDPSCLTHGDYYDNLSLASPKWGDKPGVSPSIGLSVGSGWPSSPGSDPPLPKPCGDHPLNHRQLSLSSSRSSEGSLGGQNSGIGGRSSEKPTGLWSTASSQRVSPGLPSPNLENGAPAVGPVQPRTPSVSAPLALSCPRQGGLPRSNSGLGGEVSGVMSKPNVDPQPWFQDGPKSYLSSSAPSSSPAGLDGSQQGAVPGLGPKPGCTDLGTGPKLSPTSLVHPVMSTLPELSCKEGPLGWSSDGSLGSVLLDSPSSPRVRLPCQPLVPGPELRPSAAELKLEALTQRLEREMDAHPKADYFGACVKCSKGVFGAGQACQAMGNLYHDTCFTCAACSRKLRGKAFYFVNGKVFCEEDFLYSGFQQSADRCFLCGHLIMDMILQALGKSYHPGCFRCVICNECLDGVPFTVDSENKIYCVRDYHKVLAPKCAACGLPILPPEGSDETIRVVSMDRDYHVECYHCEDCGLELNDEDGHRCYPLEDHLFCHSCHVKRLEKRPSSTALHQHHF
UniProt Q9NZN8, whole entry: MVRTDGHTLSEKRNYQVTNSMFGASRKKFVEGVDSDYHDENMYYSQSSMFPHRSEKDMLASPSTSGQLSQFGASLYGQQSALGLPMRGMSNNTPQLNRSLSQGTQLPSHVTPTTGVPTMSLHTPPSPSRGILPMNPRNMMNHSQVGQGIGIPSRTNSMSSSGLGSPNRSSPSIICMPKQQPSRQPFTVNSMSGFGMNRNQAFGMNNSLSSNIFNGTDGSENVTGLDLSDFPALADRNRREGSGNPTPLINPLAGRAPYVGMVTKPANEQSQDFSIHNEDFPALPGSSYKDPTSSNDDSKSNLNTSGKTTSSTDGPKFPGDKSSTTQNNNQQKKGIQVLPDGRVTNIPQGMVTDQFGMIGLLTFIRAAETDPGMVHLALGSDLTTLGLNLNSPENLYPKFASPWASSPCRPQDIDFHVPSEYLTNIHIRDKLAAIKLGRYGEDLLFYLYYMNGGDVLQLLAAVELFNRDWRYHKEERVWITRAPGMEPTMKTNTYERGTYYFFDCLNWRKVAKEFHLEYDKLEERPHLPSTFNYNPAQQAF
UniProt Q9NWZ3, whole entry: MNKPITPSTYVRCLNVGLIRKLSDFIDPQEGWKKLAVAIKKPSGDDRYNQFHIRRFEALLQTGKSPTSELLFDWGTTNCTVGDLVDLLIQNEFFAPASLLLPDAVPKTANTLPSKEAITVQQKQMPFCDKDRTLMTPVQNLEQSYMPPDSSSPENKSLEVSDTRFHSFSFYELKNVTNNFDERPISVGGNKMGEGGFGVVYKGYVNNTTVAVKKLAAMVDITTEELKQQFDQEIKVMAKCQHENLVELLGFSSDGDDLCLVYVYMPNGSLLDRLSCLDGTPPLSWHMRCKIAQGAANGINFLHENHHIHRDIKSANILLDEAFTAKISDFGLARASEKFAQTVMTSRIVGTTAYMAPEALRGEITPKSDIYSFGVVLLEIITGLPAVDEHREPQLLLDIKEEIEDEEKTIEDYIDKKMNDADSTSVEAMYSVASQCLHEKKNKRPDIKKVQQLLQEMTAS
UniProt Q9P206: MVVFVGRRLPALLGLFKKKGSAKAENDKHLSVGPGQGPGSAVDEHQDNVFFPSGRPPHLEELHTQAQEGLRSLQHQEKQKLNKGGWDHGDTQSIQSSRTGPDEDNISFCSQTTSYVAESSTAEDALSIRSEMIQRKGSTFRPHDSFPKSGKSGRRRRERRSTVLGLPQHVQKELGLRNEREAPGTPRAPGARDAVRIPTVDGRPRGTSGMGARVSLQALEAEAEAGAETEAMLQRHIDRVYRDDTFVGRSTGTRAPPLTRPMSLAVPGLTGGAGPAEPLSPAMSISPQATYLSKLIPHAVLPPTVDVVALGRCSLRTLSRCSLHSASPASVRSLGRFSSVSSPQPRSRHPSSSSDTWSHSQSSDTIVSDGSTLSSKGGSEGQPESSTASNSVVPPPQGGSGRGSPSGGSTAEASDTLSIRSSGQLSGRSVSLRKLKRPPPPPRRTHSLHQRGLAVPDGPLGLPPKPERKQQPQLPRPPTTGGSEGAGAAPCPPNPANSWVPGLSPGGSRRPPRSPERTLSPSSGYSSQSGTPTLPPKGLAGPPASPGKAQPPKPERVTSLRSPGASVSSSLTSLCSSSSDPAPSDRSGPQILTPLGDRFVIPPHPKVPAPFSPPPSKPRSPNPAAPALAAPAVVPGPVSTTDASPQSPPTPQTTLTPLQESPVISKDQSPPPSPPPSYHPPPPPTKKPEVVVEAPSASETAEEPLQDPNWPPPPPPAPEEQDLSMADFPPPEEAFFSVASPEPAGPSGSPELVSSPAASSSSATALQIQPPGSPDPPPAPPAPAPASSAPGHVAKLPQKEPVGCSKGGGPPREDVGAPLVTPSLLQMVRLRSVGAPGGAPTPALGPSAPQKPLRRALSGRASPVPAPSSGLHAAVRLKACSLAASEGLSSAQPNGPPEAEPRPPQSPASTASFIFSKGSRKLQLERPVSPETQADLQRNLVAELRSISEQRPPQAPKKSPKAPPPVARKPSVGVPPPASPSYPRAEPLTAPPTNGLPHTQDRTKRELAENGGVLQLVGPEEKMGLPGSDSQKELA
UniProt Q9NUQ3: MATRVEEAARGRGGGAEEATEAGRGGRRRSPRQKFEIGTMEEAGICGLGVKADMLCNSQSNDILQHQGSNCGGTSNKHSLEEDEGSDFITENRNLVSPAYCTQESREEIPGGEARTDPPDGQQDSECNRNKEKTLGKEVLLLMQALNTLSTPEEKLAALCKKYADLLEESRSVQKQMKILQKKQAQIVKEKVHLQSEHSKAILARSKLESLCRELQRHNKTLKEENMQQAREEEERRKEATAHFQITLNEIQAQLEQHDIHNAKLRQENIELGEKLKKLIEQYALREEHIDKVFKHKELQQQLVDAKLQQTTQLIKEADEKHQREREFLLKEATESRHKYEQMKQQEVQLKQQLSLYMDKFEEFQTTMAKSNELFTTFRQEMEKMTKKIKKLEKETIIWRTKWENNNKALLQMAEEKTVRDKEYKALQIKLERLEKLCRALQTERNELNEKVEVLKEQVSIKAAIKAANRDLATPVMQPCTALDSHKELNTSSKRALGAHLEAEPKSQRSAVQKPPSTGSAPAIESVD
UniProt Q9NVI1: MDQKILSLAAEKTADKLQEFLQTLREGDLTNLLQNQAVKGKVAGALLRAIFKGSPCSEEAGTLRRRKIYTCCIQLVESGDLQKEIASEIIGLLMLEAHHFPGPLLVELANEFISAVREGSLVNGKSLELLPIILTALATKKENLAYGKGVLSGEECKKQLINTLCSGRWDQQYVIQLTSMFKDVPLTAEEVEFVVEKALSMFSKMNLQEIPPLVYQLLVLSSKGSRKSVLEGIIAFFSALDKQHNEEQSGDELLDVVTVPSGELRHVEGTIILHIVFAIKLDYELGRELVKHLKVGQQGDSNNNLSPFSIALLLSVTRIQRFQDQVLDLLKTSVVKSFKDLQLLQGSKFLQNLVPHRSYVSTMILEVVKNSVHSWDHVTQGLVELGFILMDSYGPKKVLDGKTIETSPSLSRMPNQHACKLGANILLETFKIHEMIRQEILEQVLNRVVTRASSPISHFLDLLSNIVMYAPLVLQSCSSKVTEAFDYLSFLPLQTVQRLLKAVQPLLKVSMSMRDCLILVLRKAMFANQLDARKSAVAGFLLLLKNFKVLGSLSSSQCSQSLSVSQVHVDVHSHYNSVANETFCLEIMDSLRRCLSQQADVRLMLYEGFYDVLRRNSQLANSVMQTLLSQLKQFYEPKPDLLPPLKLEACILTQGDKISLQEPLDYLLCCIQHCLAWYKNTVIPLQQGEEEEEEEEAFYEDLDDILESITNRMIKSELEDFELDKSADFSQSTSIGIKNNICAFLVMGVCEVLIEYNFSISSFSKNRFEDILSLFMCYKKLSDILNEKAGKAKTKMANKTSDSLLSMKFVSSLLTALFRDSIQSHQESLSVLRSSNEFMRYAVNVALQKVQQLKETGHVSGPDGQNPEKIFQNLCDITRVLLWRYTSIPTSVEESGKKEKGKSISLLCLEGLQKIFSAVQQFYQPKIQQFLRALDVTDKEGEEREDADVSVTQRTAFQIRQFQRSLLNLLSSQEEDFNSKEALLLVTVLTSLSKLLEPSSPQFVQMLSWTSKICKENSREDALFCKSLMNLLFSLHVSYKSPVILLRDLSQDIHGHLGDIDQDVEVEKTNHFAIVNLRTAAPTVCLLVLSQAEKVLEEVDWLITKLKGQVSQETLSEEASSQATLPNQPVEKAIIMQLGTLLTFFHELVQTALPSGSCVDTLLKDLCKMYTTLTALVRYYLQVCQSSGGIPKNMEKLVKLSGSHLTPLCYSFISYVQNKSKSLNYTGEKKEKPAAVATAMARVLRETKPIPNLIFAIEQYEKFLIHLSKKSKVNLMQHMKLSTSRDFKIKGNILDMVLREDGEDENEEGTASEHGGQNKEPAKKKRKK

compound: COC(=O)C#Cc1ccccc1 [methyl 3-phenylpropiolate]; assay: log2 ratio of iodoacetamide-alkyne labeling of the cysteine site, DMSO over compound (competition); higher = stronger covalent engagement of the cysteine by the compound, active = 1 or more; settings: 500 µM; treatment time 1 h; system: HEK293T cell lysate
How it was run: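 Electrophile (500 µM) or vehicle was added to HEK293T lysate (2 mg/mL) for 1 h at ambient temperature before iodoacetamide alkyne labelling (1 h) and click coupling to sCIP-TMT reagents. After pooling, overnight trypsin digestion at 37 °C, streptavidin enrichment and acid elution, peptides were measured by Orbitrap Eclipse LC-MS/MS with FAIMS and quantified in FragPipe. Each cysteine's log2 competition ratio compares mean control-channel with mean compound-channel reporter intensity, control over compound. Data came from duplicate channels across three replicates, excluding cysteines quantified in only one replicate.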

Target	log2 ratio of iodoacetamide-alkyne labeling
LARS C546 (UniProt Q9P2J5)	inactive: 0.158
MPP6 C236 (UniProt Q9NZW5)	inactive: 0.488
RCOR3 C233 (UniProt Q9P2K3)	inactive: 0.173
HDAC6 C426 (UniProt Q9UBN7)	inactive: 0.156
C9orf78 C145 (UniProt Q9NZ63)	inactive: 0.207
LIMD1 C222 (UniProt Q9UGP4)	inactive: 0.4
CNOT2 C175 (UniProt Q9NZN8)	inactive: 0.132
NHP2 C18 (UniProt Q9NX24)	inactive: 0.438
IRAK4 C13 (UniProt Q9NWZ3)	inactive: 0.336
LIMD1 C374 (UniProt Q9UGP4)	inactive: 0.393
VAPA C128 (UniProt Q9P0L0)	inactive: 0.149
KIAA1522 C575 (UniProt Q9P206)	inactive: 0.349
UniProt Q9NUQ3_C127	inactive: 0.926
GNL3L C518 (UniProt Q9NVN8)	inactive: 0.778
FANCI C56 (UniProt Q9NVI1)	inactive: 0.281

Random excerpt: two entries already listed, in no set order.
Target	log2 ratio of iodoacetamide-alkyne labeling
LIMD1 C222 (UniProt Q9UGP4)	inactive: 0.4
IRAK4 C13 (UniProt Q9NWZ3)	inactive: 0.336
